{
  "sequences": {"note": "Amino acid sequences for entries named in this document (tags omitted). A change or cut given only in a name is not applied to a line headed by its entry.", "UniProt P18054": "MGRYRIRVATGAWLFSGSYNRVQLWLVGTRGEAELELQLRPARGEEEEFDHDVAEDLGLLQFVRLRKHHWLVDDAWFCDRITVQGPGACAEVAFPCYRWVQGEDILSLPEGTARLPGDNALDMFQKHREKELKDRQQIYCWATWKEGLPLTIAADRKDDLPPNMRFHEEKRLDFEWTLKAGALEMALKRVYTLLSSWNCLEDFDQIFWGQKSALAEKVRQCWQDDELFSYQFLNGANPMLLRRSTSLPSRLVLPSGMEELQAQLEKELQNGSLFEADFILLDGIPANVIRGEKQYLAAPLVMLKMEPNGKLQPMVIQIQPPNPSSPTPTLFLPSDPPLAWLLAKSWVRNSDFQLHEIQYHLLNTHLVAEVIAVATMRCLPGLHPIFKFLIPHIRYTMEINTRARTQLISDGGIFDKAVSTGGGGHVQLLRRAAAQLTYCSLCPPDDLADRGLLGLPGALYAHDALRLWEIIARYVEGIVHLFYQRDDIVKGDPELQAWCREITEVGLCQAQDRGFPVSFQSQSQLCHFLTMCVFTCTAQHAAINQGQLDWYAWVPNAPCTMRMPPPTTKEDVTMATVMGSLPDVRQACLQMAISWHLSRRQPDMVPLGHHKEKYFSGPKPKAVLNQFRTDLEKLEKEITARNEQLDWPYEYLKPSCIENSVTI"},
  "source": "PubChem BioAssay AID1671190",
  "about": "(National Center for Advancing Translational Sciences (NCATS), 2021)",
  "note": "The whole screen tested about 580,000 compounds, of which about 6,100 (1.1%) were called active. The shares of active, inactive and inconclusive entries below differ from those in the screen. Calls follow the shape of the dose curve; as a rule, active = well fitted inhibition curve with a large enough effect; inconclusive = small, poorly fitted or top-dose-only effect, or another doubt; inactive = no such curve, though single readings can be large or run the other way. Potencies beside an inconclusive call are fits to weak or partial responses and may not hold up. % is scaled to controls: 0 for no effect and ±100 for the full control effect; potency is read from the fitted curve at half-maximal effect.",
  "data": [
    {"biological_target": "Polyunsaturated fatty acid lipoxygenase ALOX12 (Homo sapiens) (UniProt P18054)", "experiment": "Primary qHTS assay for inhibitors of human arachidonate 12S-lipoxygenase (ALOX12): Round 2", "details": "purified 12hLO, xylenol orange hydroperoxide absorbance; activity change, negative = inhibition: at 108 µM (top of the series) unless noted", "method_in_brief": "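Purified human 12hLO (150 nM final) in 25 mM Hepes, 0.01% Triton X-100, pH 7.0 was preincubated 15 min at room temperature with compound. Then 40 uM arachidonic acid was added, 30 min. Hydroperoxide was read by Fe-XO absorbance ratio 573/405 nm.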", "values": [
      {"smiles": "CN(C)C=NC(=O)c1ccc([N+](=O)[O-])c(CS(=O)(=O)c2ccc(Cl)cc2)c1", "activity change, negative = inhibition": "inactive: -1.03%"},
      {"smiles": "CCOc1ccc(-c2nc(CSCC(=O)NCc3cccnc3)c(C)o2)cc1", "Potency": "inconclusive: 112 µM [inhibitor, single point]"},
      {"smiles": "O=C1c2ccccc2C(=O)N1Cc1cc(Cl)c(O)c([N+](=O)[O-])c1", "Potency": "inconclusive: 44.7 µM [inhibitor, partial curve, poor fit]"},
      {"smiles": "COC(=O)Nc1ccc(CNC(=O)c2ccccc2C(=O)c2ccccc2)cc1", "activity change, negative = inhibition": "inactive: 11.5%"},
      {"smiles": "CCN1C(=NCCc2ccc([N+](=O)[O-])cc2)N[C@@H](c2ccccc2)[C@H](C(=O)OC)[C@H]1C", "activity change, negative = inhibition": "inactive: -21.7%"},
      {"smiles": "C[C@@H]1CN([C@H](C)CO)C(=O)CCCn2cc(nn2)CO[C@H]1CN(C)S(=O)(=O)c1cccc(F)c1", "Potency": "inconclusive: 158 µM [inhibitor, single point]"},
      {"smiles": "CC(C)(C)NC(=O)C(C1CC1)n1c(=O)c(-c2ccco2)nc2ccccc21", "note": "(centres undefined)", "Potency": "inconclusive: 39.8 µM [inhibitor, partial curve]"},
      {"smiles": "O=C(Nc1ccccc1)c1nc2c(o1)CCN(Cc1ccc(F)c(Cl)c1)CC2", "activity change, negative = inhibition": "inactive: 13.6% [at 176 µM]"},
      {"smiles": "CC(C)(C)OC(=O)N[C@H]1C=C[C@@H](CC(=O)OCC(F)(F)F)C1", "Potency": "inconclusive: 25.1 µM [inhibitor, single point]"},
      {"smiles": "COc1cc(C(=O)OCc2cccc(C(F)(F)F)c2)ccc1OCc1ccc(Cl)cc1Cl", "activity change, negative = inhibition": "inactive: 0.45%"},
      {"smiles": "C/C(=N\\NC(=O)c1cccc(N/N=C(\\C)c2ccccc2)c1)c1ccccc1", "Potency": "inconclusive: 31.6 µM [inhibitor, partial curve, poor fit]"},
      {"smiles": "COc1ccccc1-c1ccc2ncnc(NCc3cccnc3)c2c1", "Potency": "inconclusive: 2.82 µM [inhibitor, full curve, poor fit]"},
      {"smiles": "CCCOc1ccc(C(=O)Nc2cccc(NC(=O)c3ccc(Cl)cc3Cl)c2)cc1", "activity change, negative = inhibition": "inactive: -14.2%"},
      {"smiles": "Cc1cccc(OCc2nnc(SCC(=O)N3CCCC3)n2C)c1", "Potency": "inconclusive: 4.47 µM [inhibitor, full curve, poor fit]"},
      {"smiles": "Cc1nc(CN(C)C(=O)c2cc(Cn3c(C)nc4ccccc43)on2)cs1", "activity change, negative = inhibition": "inactive: 20.3%"},
      {"smiles": "CNC(=O)Cn1nc(C2CCN(C(=O)Cc3ccsc3)CC2)c2c1CCOC2", "activity change, negative = inhibition": "inactive: 44.3%"},
      {"smiles": "Cc1nc(CCNC(=O)NC2CCCC2)no1", "Potency": "inconclusive: 31.6 µM [inhibitor, partial curve]"},
      {"smiles": "COc1ccc(CN2Cc3[nH]cnc3C[C@H]2c2nc(-c3ccc(C)cc3)no2)cc1", "activity change, negative = inhibition": "inactive: 43.4% [at 176 µM]"},
      {"smiles": "CC(C)(C)c1ccc(-c2nc(C3CC(=O)N(c4ccc(F)cc4)C3)no2)cc1", "note": "(centres undefined)", "activity change, negative = inhibition": "inactive: 12.4%"},
      {"smiles": "CCN1CCN(Cc2cc(=O)oc3cc(C)cc(O)c23)CC1", "Potency": "inconclusive: 126 µM [inhibitor, single point]"},
      {"smiles": "Cc1cc2oc(C(=O)Nc3nnc(CC(C)C)s3)cc(=O)c2cc1C", "Potency": "inconclusive: 39.8 µM [inhibitor, partial curve, poor fit]"},
      {"smiles": "CCC(=O)n1nc(-c2cccnc2)nc1NCc1ccccc1", "activity change, negative = inhibition": "inactive: 24.4%"},
      {"smiles": "Cc1cccc(OCC(=O)N2CCC(N3CCCCCC3)CC2)c1", "Potency": "inconclusive: 0.891 µM [inhibitor, full curve, poor fit]"},
      {"smiles": "CSc1cccc(CN2CCCC(C(=O)Nc3cccc(-n4cccn4)c3)C2)c1", "note": "(centres undefined)", "Potency": "inconclusive: 44.7 µM [inhibitor, partial curve, poor fit]"},
      {"smiles": "O=C(c1ccccc1)N1CCC2(C1)C(=O)N(c1ccccc1)c1ccccc12", "note": "(centres undefined)", "Potency": "inconclusive: 112 µM [inhibitor, partial curve, poor fit]"},
      {"smiles": "Cc1ccc(CNC(=O)c2ccc(C(F)(F)F)cc2)cc1", "activity change, negative = inhibition": "inactive: 0.285%"},
      {"smiles": "CCOC(=O)c1cc(NC(=O)c2ccc(-c3ccccc3)cc2)ccc1N1CCOCC1", "Potency": "inconclusive: 44.7 µM [inhibitor, partial curve, poor fit]"},
      {"smiles": "Cc1cc(C)c2cc(CN(CCCN(C)C)C(=S)NCc3ccccc3)c(=O)[nH]c2c1", "activity change, negative = inhibition": "inactive: -13.6%"},
      {"smiles": "CCOc1ccccc1C(=O)Nc1ccc(OC)c2ncccc12", "Potency": "inconclusive: 79.4 µM [inhibitor, single point]"},
      {"smiles": "c1coc(-c2nc(-c3cccs3)no2)c1", "Potency": "inconclusive: 56.2 µM [inhibitor, partial curve, poor fit]"},
      {"smiles": "CCOc1ccc(NC(=O)Cn2cnc3c(cnn3-c3cc(Cl)ccc3C)c2=O)cc1", "Potency": "inconclusive: 50.1 µM [inhibitor, full curve, poor fit]"},
      {"smiles": "CC(=O)c1c(O)c(C)c(-c2ccccc2)n(-c2ccccc2)c1=O", "Potency": "inconclusive: 39.8 µM [inhibitor, partial curve, poor fit]"},
      {"smiles": "O=c1[nH]n2c(=O)c3c([nH]c2c1N=Nc1ccccc1)CCC3", "Potency": "inconclusive: 50.1 µM [inhibitor, partial curve, poor fit]"},
      {"smiles": "Nc1ncc(S(=O)(=O)N2CCN(c3ccccc3)CC2)cn1", "Potency": "inconclusive: 63.1 µM [inhibitor, partial curve, poor fit]"},
      {"smiles": "COc1ccc2oc(C(=O)N3CCC(C(=O)Nc4ccc5c(c4)OCO5)CC3)c(C)c2c1", "activity change, negative = inhibition": "inactive: 7.63%"},
      {"smiles": "COc1ccc(OC)c(CNC(=O)C2Cn3cccc3C(=O)N2Cc2cccnc2)c1", "note": "(centres undefined)", "activity change, negative = inhibition": "inactive: 58.2%"},
      {"smiles": "O=C(c1ccco1)N1CCN(C(=O)c2cc3c(s2)-c2ccccc2OC3)CC1", "Potency": "inconclusive: 12.6 µM [inhibitor, full curve, poor fit]"},
      {"smiles": "CCOc1ccc2oc(=O)cc(-c3cc4ccccc4o3)c2c1", "activity change, negative = inhibition": "inactive: 9.92%"},
      {"smiles": "COc1ccc(CN2CCN(C(=O)CC(C)C)CC2)cc1Br", "Potency": "inconclusive: 2.51 µM [inhibitor, partial curve, poor fit]"},
      {"smiles": "CC1CCC(C(C)C)C(OC(=O)COC(=O)c2ccc(=O)[nH]c2)C1", "note": "(centres undefined)", "activity change, negative = inhibition": "inactive: -5.2%"},
      {"smiles": "COC(=O)CC1Oc2ccc(Cl)cc2-n2cc(-c3ccc(C)cc3)nc21", "note": "(centres undefined)", "Potency": "inconclusive: 112 µM [inhibitor, single point]"},
      {"smiles": "COCC(=O)N[C@H]1C[C@@H](CO)N(Cc2cccc(F)c2F)C1", "Potency": "inconclusive: 12.6 µM [inhibitor, full curve, poor fit]"},
      {"smiles": "COc1ccc(N2CCN(CC(O)COCCOc3ccc(Br)cc3)CC2)cc1", "note": "(centres undefined)", "Potency": "inconclusive: 35.5 µM [inhibitor, partial curve, poor fit]"},
      {"smiles": "Cc1cnc(C(=O)N(CCCn2ccnc2)C2C(=O)Nc3ccccc3N=C2c2ccccc2)cn1", "note": "(centres undefined)", "Potency": "inconclusive: 1.58 µM [inhibitor, partial curve, poor fit]"},
      {"smiles": "C=CCN(CC=C)CCOc1ccccc1[N+](=O)[O-]", "Potency": "inconclusive: 6.31 µM [inhibitor, full curve, poor fit]"},
      {"smiles": "CC1CN(CCCCOc2cccc(Oc3ccccc3)c2)CC(C)O1", "note": "(centres undefined)", "Potency": "inconclusive: 50.1 µM [inhibitor, partial curve, poor fit]"},
      {"smiles": "COc1ccc(N2CCN(C(=O)c3ccc(CS(=O)c4cccc(C)c4)o3)CC2)cc1", "note": "(centres undefined)", "Potency": "inconclusive: 89.1 µM [inhibitor, partial curve, poor fit]"},
      {"smiles": "CC(=O)NC1=NN(C(C)=O)C2(S1)C(=O)N(CC(C)C)c1ccc(C)cc12", "note": "(centres undefined)", "Potency": "inconclusive: 112 µM [inhibitor, single point]"},
      {"smiles": "CC(C)Oc1cccc(-c2nnc(CCC(=O)NC(C)c3ccccc3)c(=O)[nH]2)c1", "note": "(centres undefined)", "Potency": "inconclusive: 11.2 µM [inhibitor, full curve]"},
      {"smiles": "CN1CC(=O)N(C2CCCNC2)Cc2c1ncnc2N1CCc2ccccc2C1", "note": "(centres undefined)", "Potency": "inconclusive: 8.91 µM [inhibitor, partial curve, poor fit]"},
      {"smiles": "O=c1c2ccccc2cnn1CN1CCN(S(=O)(=O)c2ccc(Cl)cc2)CC1", "activity change, negative = inhibition": "inactive: -9.76%"},
      {"smiles": "Cc1c(NC(=O)C(C)NCC2CCCO2)c(=O)n(-c2ccccc2)n1C", "note": "(centres undefined)", "Potency": "inconclusive: 4.47 µM [inhibitor, full curve, poor fit]"},
      {"smiles": "CC(=O)N1c2ccc(S(=O)(=O)N3CCCC3C(=O)NCc3ccccc3Cl)cc2CC1C", "note": "(centres undefined)", "Potency": "inconclusive: 17.8 µM [inhibitor, single point]"},
      {"smiles": "O=c1[nH]c2ccccc2c(-c2ccccc2)c1Sc1nc2ccccc2o1", "Potency": "inconclusive: 44.7 µM [inhibitor, partial curve, poor fit]"},
      {"smiles": "CC(C)CNc1ccnc(NCc2csc(-c3ccccc3)n2)n1", "Potency": "inconclusive: 15.3 µM [inhibitor, single point]"},
      {"smiles": "C[C@H]1CN([C@@H](C)CO)C(=O)CCCn2cc(nn2)CO[C@@H]1CN(C)S(=O)(=O)c1ccccc1C#N", "Potency": "inconclusive: 31.6 µM [inhibitor, single point]"},
      {"smiles": "O=C(CN1CCC(Cc2ccccc2)CC1)c1c[nH]c2ccccc12", "Potency": "inconclusive: 44.7 µM [inhibitor, partial curve, poor fit]"},
      {"smiles": "COc1cc(/C=C/[N+](=O)[O-])ccc1OC(=O)c1cc2ccccc2oc1=O", "Potency": "inconclusive: 3.98 µM [inhibitor, full curve, poor fit]"},
      {"smiles": "Cc1ccccc1CN(C)C(=O)COC(=O)CSc1ccc([N+](=O)[O-])cc1", "Potency": "inconclusive: 39.8 µM [inhibitor, partial curve, poor fit]"},
      {"smiles": "O=C(Nc1c[nH]c(=O)[nH]c1=O)c1cccc([N+](=O)[O-])c1", "Potency": "inconclusive: 100 µM [inhibitor, single point]"},
      {"smiles": "O=C(COC(=O)c1cncc(Br)c1)NC12CC3CC(CC(C3)C1)C2", "Potency": "inconclusive: 100 µM [inhibitor, single point]"},
      {"smiles": "Cc1ccc(C(=O)N2CCN(c3ccccc3O)CC2)cc1S(=O)(=O)N1CCCCC1", "Potency": "inconclusive: 50.1 µM [inhibitor, single point]"},
      {"smiles": "O=C1NC(c2ccncc2)Nc2sc3c(c21)CCCC3", "note": "(centres undefined)", "Potency": "inconclusive: 10 µM [inhibitor, full curve]"},
      {"smiles": "CCCCN=C1NN=C(c2ccc(C)c(C)c2)CS1", "activity change, negative = inhibition": "inconclusive: -43.4% [inhibitor]"}
    ]}
  ]
}
